Results taken from EP0960942A2.
These are yes or no findings as the source states them, for the method shown. Some entries that bind do so weakly or less than the wild type.

Chains of the proteins cited; added tags and fusions are not shown.
UniProt P30825: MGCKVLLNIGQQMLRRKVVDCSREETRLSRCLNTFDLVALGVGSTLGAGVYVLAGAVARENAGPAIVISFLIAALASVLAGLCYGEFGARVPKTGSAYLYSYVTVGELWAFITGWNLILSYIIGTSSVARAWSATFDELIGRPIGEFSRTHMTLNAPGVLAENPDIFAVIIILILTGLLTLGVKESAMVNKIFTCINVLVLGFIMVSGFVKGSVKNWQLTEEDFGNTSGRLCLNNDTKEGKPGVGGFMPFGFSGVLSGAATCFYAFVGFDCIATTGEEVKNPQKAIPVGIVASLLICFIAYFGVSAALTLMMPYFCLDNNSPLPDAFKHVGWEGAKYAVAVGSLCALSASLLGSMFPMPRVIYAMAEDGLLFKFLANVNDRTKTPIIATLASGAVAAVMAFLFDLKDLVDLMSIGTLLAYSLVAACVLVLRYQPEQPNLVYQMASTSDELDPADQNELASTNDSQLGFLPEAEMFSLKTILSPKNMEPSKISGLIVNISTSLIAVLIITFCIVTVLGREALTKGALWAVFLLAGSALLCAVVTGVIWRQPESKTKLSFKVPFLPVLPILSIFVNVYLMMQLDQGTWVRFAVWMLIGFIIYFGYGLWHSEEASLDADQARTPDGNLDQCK

What was measured:
[1] = target: biotinylated hCAT1 peptide (synthetic peptide of the predicted third extracellular domain of hCAT1, N-terminal biotin and linker KRR) (human); experiment: phage ELISA on biotinylated hCAT1 peptide captured on streptavidin
[2] = target: human cationic amino acid transporter-1 (hCAT1) on 911-hCAT1-k08 cells (human) (UniProt P30825); experiment: flow cytometry, 10^11 phage on 911-pcDNA3 and 911-hCAT1(k08) cells, anti-m13 detection
[3] = target: human cationic amino acid transporter-1 (hCAT1) on 911-hCAT1-k08 cells (human) (UniProt P30825); experiment: titering of cell bound, eluted and cell associated phage on E.coli

Measured: binding

m13 phage displaying the 12 mer peptide … (clone # 26) (from UniProt P69168 19-424)
binds: all assays above
